PubChem BioAssay AID1053208, Peter MacCallum Cancer Centre, 2014
Screen: 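Genes whose silencing cuts survival of bone tumour cells only with doxorubicin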 (primary screen). Cell system: mouse osteosarcoma cells, early-passage culture from an engineered mouse model of fibroblastic bone tumour. Knock-down reagent: siRNA pool against mouse genes, 40 nM. Timing: about 120 h (48 h before drug, then 72 h with drug). Challenge: doxorubicin 100 nM for 72 h, roughly 30-40% inhibitory dose. Measured: 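Viability read as ATP luminescence after 72 h of 100 nM doxorubicin or none, duplicate wells averaged, scaled to non-targeting siRNA, then expressed as robust z-scores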. Scale: viability z-score with doxorubicin and doxorubicin viability vs non-targeting: higher = more viable cells under doxorubicin; viability z-score without drug: higher = more viable cells with knock-down alone; z-score of drug to no-drug ratio: higher = less drug sensitisation by knock-down. Rule for the call: 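Called active if knock-down leaves viability unchanged without drug (z within -2 to 2) but lowers it with doxorubicin (z at or under -2)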.
The deposit covers about 17,000 reagents; this is an unselected part. Over the whole deposit, 788 (4.7%) are marked active. 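Calls rest on z-score classes alone; an extra cut-off of viability at most 70% of control was not applied to them.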

The first 3 entries, ahead of the listing:
| gene symbol | combined z-score class | viability z-score with doxorubicin | viability z-score without drug | z-score of drug to no-drug ratio | doxorubicin viability vs non-targeting | call |
| --- | --- | --- | --- | --- | --- | --- |
| Yeats4 (YEATS domain containing 4) | low cell count with doxorubicin only | -2.36 | -1.18 | -1.69 | 0.73 | active |
| Tyms (thymidylate synthase) | no change with or without drug | -0.22 | -0.51 | 0.22 | 0.92 | inactive |
| Letmd1 (LETM1 domain containing 1) | low cell count without drug only | -0.67 | -2.02 | 0.9 | 0.88 | inactive |

Results, from the first entry:
| gene symbol | combined z-score class | viability z-score with doxorubicin | viability z-score without drug | z-score of drug to no-drug ratio | doxorubicin viability vs non-targeting | call |
| --- | --- | --- | --- | --- | --- | --- |
| Yeats4 (YEATS domain containing 4) | low cell count with doxorubicin only | -2.36 | -1.18 | -1.69 | 0.73 | active |
| Tyms (thymidylate synthase) | no change with or without drug | -0.22 | -0.51 | 0.22 | 0.92 | inactive |
| Letmd1 (LETM1 domain containing 1) | low cell count without drug only | -0.67 | -2.02 | 0.9 | 0.88 | inactive |
| Mrpl33 (mitochondrial ribosomal protein L33) | no change with or without drug | 0 | -1.35 | 1.12 | 0.94 | inactive |
| Mrpl4 (mitochondrial ribosomal protein L4) | low cell count with and without drug | -2.02 | -2.19 | -0.56 | 0.76 | inactive |
| Tppp3 (tubulin polymerization-promoting protein family member 3) | no change with or without drug | 1.35 | 1.69 | 0.34 | 1.06 | inactive |
| Mrps11 (mitochondrial ribosomal protein S11) | no change with or without drug | 0.56 | -0.67 | 1.24 | 0.99 | inactive |
| Igfbp2 (insulin-like growth factor binding protein 2) | no change with or without drug | 0.45 | -0.51 | 1.01 | 0.98 | inactive |
| Ppm1n (protein phosphatase, Mg2+/Mn2+ dependent, 1N (putative)) | low cell count with doxorubicin only | -3.15 | -1.18 | -2.59 | 0.66 | active |
| Gp9 (glycoprotein 9 platelet) | no change with or without drug | 0.67 | 0.84 | 0.22 | 1 | inactive |
| Abca7 (ATP-binding cassette, sub-family A member 7) | no change with or without drug | -0.22 | -0.17 | 0 | 0.92 | inactive |
| Tle3 (transducin-like enhancer of split 3) | no change with or without drug | -1.12 | -0.51 | -0.79 | 0.84 | inactive |
| Acsm2 (acyl-CoA synthetase medium-chain family member 2) | no change with or without drug | -0.22 | -0.17 | 0 | 0.92 | inactive |
| Kcnb1 | no change with or without drug | 0.67 | 0.51 | 0.45 | 1 | inactive |
| Chst10 (carbohydrate sulfotransferase 10) | no change with or without drug | -1.12 | -1.18 | -0.34 | 0.84 | inactive |
| Tgif2 (TGFB-induced factor homeobox 2) | low cell count with doxorubicin only | -2.25 | -1.52 | -1.35 | 0.74 | active |
| Blk (Blk proto-oncogene, Src family tyrosine kinase) | no change with or without drug | 0.45 | 0.17 | 0.45 | 0.98 | inactive |
| Gpx3 (glutathione peroxidase 3) | no change with or without drug | 0.79 | -0.67 | 1.46 | 1.01 | inactive |
| Ptprn2 (protein tyrosine phosphatase receptor type N polypeptide 2) | no change with or without drug | -1.57 | -0.51 | -1.24 | 0.8 | inactive |
| Plk5 (polo like kinase 5) | no change with or without drug | -1.8 | 0 | -1.8 | 0.78 | inactive |
| Pth2 (parathyroid hormone 2) | no change with or without drug | -0.9 | -0.84 | -0.22 | 0.86 | inactive |
| Trabd (TraB domain containing) | no change with or without drug | 0.11 | 0.84 | -0.34 | 0.95 | inactive |
| Eed (embryonic ectoderm development) | no change with or without drug | -0.45 | -0.17 | -0.22 | 0.9 | inactive |
| Rnf168 (ring finger protein 168) | no change with or without drug | 0.67 | 0.84 | 0.22 | 1 | inactive |
| Mtm1 (X-linked myotubular myopathy gene 1) | no change with or without drug | 1.8 | -0.84 | 2.7 | 1.1 | inactive |
| Mgat4f (MGAT4 family, member F) | high cell count without drug only | 1.91 | 2.36 | 0.45 | 1.11 | inactive |
| Rps19 (ribosomal protein S19) | low cell count with and without drug | -4.5 | -3.37 | -2.92 | 0.54 | inactive |
| Fmn1 (formin 1) | no change with or without drug | 0.9 | 0.84 | 0.45 | 1.02 | inactive |
| Rbp3 (retinol binding protein 3, interstitial) | no change with or without drug | 0 | -0.17 | 0.22 | 0.94 | inactive |
| Capn1 (calpain 1) | no change with or without drug | 0 | -0.17 | 0.22 | 0.94 | inactive |
| Fto (FTO alpha-ketoglutarate dependent dioxygenase) | no change with or without drug | 0.22 | 1.18 | -0.45 | 0.96 | inactive |
| Zfp523 (zinc finger protein 523) | no change with or without drug | 1.01 | 0.84 | 0.56 | 1.03 | inactive |
| Fdx1 (ferredoxin 1) | no change with or without drug | -0.34 | -0.17 | -0.11 | 0.91 | inactive |
| Itgb2 (integrin beta 2) | no change with or without drug | 0.79 | 0.51 | 0.56 | 1.01 | inactive |
| TSGA8 | low cell count with doxorubicin only | -2.36 | -0.51 | -2.14 | 0.73 | active |
| Glis3 (GLIS family zinc finger 3) | no change with or without drug | 1.12 | 0.84 | 0.67 | 1.04 | inactive |
| Bpifa2 (BPI fold containing family A, member 2) | high cell count with and without drug | 2.92 | 3.71 | 0.56 | 1.2 | inactive |
| Dnajb8 (DnaJ heat shock protein family (Hsp40) member B8) | no change with or without drug | 0 | 0.84 | -0.45 | 0.94 | inactive |
| Mblac1 (metallo-beta-lactamase domain containing 1) | no change with or without drug | -0.22 | 0.17 | -0.22 | 0.92 | inactive |
| Dok2 (docking protein 2) | no change with or without drug | -0.67 | -0.84 | 0 | 0.88 | inactive |
| Ifitm2 (interferon induced transmembrane protein 2) | no change with or without drug | -1.46 | -0.17 | -1.35 | 0.81 | inactive |
| Gsdma2 (gasdermin A2) | no change with or without drug | -0.45 | -1.18 | 0.45 | 0.9 | inactive |
| Banf2 (BANF family member 2) | no change with or without drug | 0.45 | 0.84 | 0 | 0.98 | inactive |
| Cnksr2 (connector enhancer of kinase suppressor of Ras 2) | no change with or without drug | 0 | -0.17 | 0.22 | 0.94 | inactive |
| Hdgfl1 (HDGF like 1) | no change with or without drug | 1.57 | -1.52 | 3.15 | 1.08 | inactive |
| Zfp944 (zinc finger protein 944) | no change with or without drug | 0.67 | -0.34 | 1.12 | 1 | inactive |
| Zrsr2 | no change with or without drug | -1.12 | -1.69 | 0.11 | 0.84 | inactive |
| Fkbp9 (FK506 binding protein 9) | high cell count with doxorubicin only | 2.02 | 1.69 | 1.01 | 1.12 | inactive |
| Reg4 (regenerating islet-derived family, member 4) | no change with or without drug | -1.91 | 0.51 | -2.14 | 0.77 | inactive |
| Dnajb13 (DnaJ heat shock protein family (Hsp40) member B13) | no change with or without drug | 0.34 | 1.35 | -0.45 | 0.97 | inactive |
